Source: patent US20160151270A1, “Peptide-Based Compositions and Methods of Use” (Geoffrey Brooks Consultants LLC, priority 2014, published 2016)
At least one peptide structure holds a part that was inferred or is arguable (an end, a ring closure or a residue). Residues, ends and D or L forms follow the SMILES beside them.

Test: consumer use testing
Assay type: in vivo

Question: For `CC(C)[C@H](NC(=O)[C@H](CC(N)=O)NC(=O)[C@H](C)N)C(=O)N[C@@H](C)C(=O)N[C@@H](CCC(=O)O)C(=O)N[C@@H](CC(N)=O)C(=O)N[C@@H](C)C(=O)O` [cytomodulin, A-N-V-A-E-N-A] (H-ANVAENA-OH), which “improved skin appearance, texture, and wrinkle-reduction” value is on record?
Answer: Its value is “excellent results”.
